# From PMC12040169 (PLOS Biology, 2025)
# This is one part of the list.
# Test system: T1, CTL2-GFP (C. trachomatis L2/434/Bu, GFP-expressing)
# T1 construct: L2/434/Bu, GFP-expressing
# Parameters: species or system HeLa; Intracellular C. trachomatis growth in HeLa cells, bulk GFP fluorescence relative to DMSO
# Conditions: bulk GFP, single well; 28.5 h, 10 µM; inhibitor
row,Compound,% of control remaining
1,COC(=O)c1c(C)oc(C)c1S(=O)(=O)Nc1ccc(C(C)C)cc1 [CBK057115],150.002%
2,O=C(c1cscn1)N1CCN(c2ncccn2)CC1 [CBK144506],116.851%
3,CN(C)C(CNc1nccnc1-c1ccc(CO)cc1)c1cccnc1 (stereo not shown) [CBK038038],138.712%
4,CCOCCCNc1c2c(c(C#N)c3nc4ccccc4n13)CCC2 [CBK263151],109.505%
5,Cc1nccn1CC1(O)CCN(C(=O)C2(c3ccccc3)CC2)CC1 [CBK284659],84.5194%
6,O=C(O)c1ccccc1C1Nc2ccccc2S(=O)(=O)N1Cc1ccccc1 (stereo not shown) [CBK286587],92.4523%
7,OC(CNc1nccnc1-c1ccco1)COc1ccccc1 (stereo not shown) [CBK036862],115.382%
8,COc1cccc(CN2CCCN(c3nccc(OCC4COc5ccccc5O4)n3)CC2)c1OC (stereo not shown) [CBK115476T],114.83%
9,CN(C)C(=O)c1cccc(NC(=O)C2CCCCC2)c1 [CBK304515],123.452%
10,CCN1CC2(CCN(Cc3cccc(-c4ccccn4)c3)CC2)CC1=O [CBK307399],101.535%
11,CN(C)c1cccc(-c2cncc(NCCCN3CCOCC3)n2)c1 [CBK065635],172.307%
12,O=C1c2ccccc2CN1c1cccc2ccccc12 [CBK113190],104.276%
13,Cn1nccc1C(=O)NC(Cc1cccs1)c1nccs1 (stereo not shown) [CBK285055],140.552%
14,O=C(NC1CCCC1)c1ccc(-c2cnc3[nH]c(=O)n(CCCN4CCOCC4)c3n2)cc1 [CBK064829],104.337%
15,O=[N+]([O-])c1ccc(Oc2cccc3cccnc23)c(C(F)(F)F)c1 [CBK002739],131.004%
16,COc1cc2[nH]c(=S)n3nc(-c4ccncc4)nc3c2cc1OC [CBK288559],128.298%
17,Cc1ccc(-c2nnc(C3CCCN(C(=O)C4CC4)C3)o2)s1 (stereo not shown) [CBK285516],141.731%
18,Nc1cccc(-c2nc(-c3cncnc3)cnc2N)c1 [CBK063907],120.103%
19,O=C(O)C1CCCN(C(=O)NCc2ccc3c(c2)OCO3)C1 (stereo not shown) [CBK161346],113.293%
20,CCCC(=O)N1CCn2c(nnc2-c2cncc(Br)c2)C1 [CBK304761],112.116%
21,CS(=O)(=O)NCC1CCCCN1Cc1ccc(-n2cccn2)cc1 (stereo not shown) [CBK305587],143.795%
22,COc1cccc(C(=O)N2CCN(S(=O)(=O)c3ccc([N+](=O)[O-])cc3)CC2)c1 [CBK157533],56.6375%
23,Cc1csc2c(C3CCCN(C(=O)c4cccnc4)C3)nc(C)n12 (stereo not shown) [CBK283329],126.189%
24,O=C(O)c1cccnc1SC1CC(=O)N(Cc2ccccc2)C1=O (stereo not shown) [CBK263375],67.4253%
25,COc1ccc(C[C@@]23CC[C@H](NC(=O)NCCc4ccccc4)C[C@@H]2N(C)CC3)cc1 [CBK024127],90.3127%
26,CN(C)CCNC(=O)C(=O)Nc1ccc(Cl)cc1 [CBK266965],121.696%
27,CC(=O)N1CC[C@H]2NC(=O)CNC(=O)C3(CCCC[C@H]2C1)CCN(C(=O)CCn1ccnc1)CC3 [CBK292138],81.5556%

# Looked up by compound from the entries so far, four records:
row,Compound,% of control remaining
16,COc1cc2[nH]c(=S)n3nc(-c4ccncc4)nc3c2cc1OC [CBK288559],128.298%
25,COc1ccc(C[C@@]23CC[C@H](NC(=O)NCCc4ccccc4)C[C@@H]2N(C)CC3)cc1 [CBK024127],90.3127%
6,O=C(O)c1ccccc1C1Nc2ccccc2S(=O)(=O)N1Cc1ccccc1 (stereo not shown) [CBK286587],92.4523%
1,COC(=O)c1c(C)oc(C)c1S(=O)(=O)Nc1ccc(C(C)C)cc1 [CBK057115],150.002%

# Following part.

row,Compound,% of control remaining
1,CC(=O)Nc1cccc(-c2cnc3[nH]c(=O)n(C4CC4)c3n2)c1 [CBK064859],152.058%
2,O=C(Nc1n[nH]c2ccccc12)c1ccccc1 [CBK017993],179.309%
3,O=C(NCCN1CCCC1=O)Nc1ccccc1 [CBK263517],89.0677%
4,CN1CCN(c2cccc(-c3cc(C(F)(F)F)cc(C(F)(F)F)c3)n2)CC1 [CBK036982],162.046%
5,O=c1cc(N2CCCCC2)cnn1Cc1nccn1C1CC1 [CBK307484],144.628%
6,C/C(=N\NC(=O)c1nc(-c2ccccc2)cc(-c2ccccc2)n1)c1cccnc1 [CBK262827],108.479%
7,O=C(O)c1ccc(CNCCN2CCOCC2)cc1 [CBK287223],131.753%
8,Cc1noc(C)c1NC(=O)CCc1cccnc1 [CBK200392],89.254%
9,CN1C(=O)COc2ccccc2C/C=C/C[C@@H]2[C@H]1CCCN2C(=O)c1cnn2cccnc12 [CBK292083],97.3466%
10,CC(C)(C)SCCNS(=O)(=O)c1ccc(Cl)c(Cl)c1 [CBK057015],125.603%
11,CCOC(=O)CCCNC(=O)N1CCN(c2ccccc2OC)CC1 [CBK155618],107.343%
12,Cc1cccc2c3c([nH]c12)C1(CCCN(Cc2ccc(F)cc2Cl)C1)NCC3 (stereo not shown) [CBK039339],69.6981%
13,O=c1[nH]c2ccccc2n1C1CCN(S(=O)(=O)c2cc(Cl)cc(Cl)c2O)CC1 [CBK149694],120.929%
14,O=C(O)C(=O)c1cn(Cc2ccccc2Cl)c2ccccc12 [CBK287035],124.721%
15,Oc1cccnc1N1CCN(Cc2ccccc2)CC1 [CBK045849],119.969%
16,Cc1ccc(S(=O)(=O)NCC(=O)Nc2cc3ccccc3c(Br)n2)cc1 [CBK063300],112.723%
17,COc1cccc(CN2C(=O)CC3(C2=O)C(=O)N(CC(=O)c2ccccc2)c2ccccc23)c1 (stereo not shown) [CBK075984],118.8%
18,Cc1cc(C)cc(OC(C)C(=O)N2CCCc3c(cnn3C)C2)c1 (stereo not shown) [CBK285270],131.575%
19,CC12CCCC(=O)N1C(CO)C(c1ccccc1)O2 (stereo not shown) [CBK011013],147.038%
20,Cc1ccc(Cl)c(OC(C)C(=O)N2CCOC(CC(=O)O)C2)c1 (stereo not shown) [CBK304769],113.155%
21,CCOC(=O)C1(Cc2ccc(F)cc2F)CCCN(C(C)=O)C1 (stereo not shown) [CBK307516],118.072%
22,CCCC(N)CCCCCC(=O)O (stereo not shown) [CBK217078],108.145%
23,Cn1c(Cc2cccs2)nnc1SCC(=O)c1c[nH]c2ccccc12 [CBK268534],128.646%
24,COc1ccc(CCNC(=O)c2cnc3scc(C)n3c2=O)cc1 [CBK287291],93.6599%
25,CCCc1c(C(=O)N2CCN(c3ncccn3)CC2)cnn1-c1cc(Cl)cc(Cl)c1 [CBK107383],97.0004%
26,COc1ccc(S(=O)(=O)NC(=O)NCC2CC3C=CC2C3)cc1 (stereo not shown) [CBK022821],116.595%
27,Cc1nc2ccc(NC(=S)N3CCN(c4ccccn4)CC3)cc2nc1C [CBK267227],144.228%

row,Compound,% of control remaining
1,OC(CN1CCOCC1)Cn1c(-c2ccccc2)c(-c2ccccc2)c2ccc3ccccc3c21 (stereo not shown) [CBK263996G],40.5425%
2,Cc1nnsc1C(=O)N1CCN(c2cc(C(F)(F)F)ccn2)CC1 [CBK008467],141.341%
3,CCOc1ccccc1C(=O)N1CCC(Cc2cccc(-c3cccs3)c2)(C(N)=O)CC1 [CBK285914],113.949%
4,Cc1ccc(C(Cc2ccsc2)NS(=O)(=O)c2ccc3[nH]c(=O)[nH]c(=O)c3c2)nc1 (stereo not shown) [CBK286354],121.549%
5,CC(C)C(=O)N1CC(C)N(CCCC(c2ccc(F)cc2)c2ccc(F)cc2)CC1C (stereo not shown) [CBK024961C],120.031%
6,CC(=O)c1ccc(NC(=O)O[C@@H]2CO[C@H]3[C@@H]2OC[C@@H]3NC(=O)C2CCC2)cc1 [CBK289475],118.111%
7,Cc1ccc(C(C)C(=O)N2CCC(O)(Cn3ccnc3C)CC2)cc1 (stereo not shown) [CBK284660],131.744%
8,O=C(CC1Sc2ccccc2NC1=O)Nc1ccc([N+](=O)[O-])c(F)c1 (stereo not shown) [CBK264717],100%
9,CC(C)C(=O)N1CCC(OCc2ccc(-c3ccc(C(=O)N(C)C)cc3)cc2S(C)(=O)=O)CC1 [CBK155921],94.2059%
10,CN1CCN(CCC(=O)N2CCN(c3ncccn3)CC2)CC1 [CBK144520],75.5755%
11,CN1CCC(NC(=O)c2cc3ccccc3[nH]2)CC1 [CBK168633],109.497%
12,COc1ccc(CNC(=O)c2cc(S(=O)(=O)N(C)C)ccc2OC)cc1 [CBK307586],151.77%
13,Cc1nnc(CS(=O)(=O)Cc2csc(C(C)C)n2)n1C1CC1 [CBK304106],102.796%
14,COCCNc1cc(-c2ccc(C(C)=O)s2)ncn1 [CBK090791],164.916%
15,Cn1cnc([N+](=O)[O-])c1Sc1cccs1 [CBK002620],52.1063%
16,CCCCN(Cc1ccccc1)C(=O)[C@H]1CCCC[C@H]1C(=O)O [CBK286596],125.219%
17,Cn1ncc(Nc2ccccc2)c1C(=O)O [CBK013004],84.4186%
18,Cc1nn(-c2ccc(F)cc2)c(C)c1C(=O)NCc1ccnc(N2CCCC2)c1 [CBK296700],115.661%
19,COC(=O)CCC(=O)Nc1snnc1-c1ccc(Cl)cc1 [CBK153241],113.033%
20,CC(C)(C)OC(=O)N1Cc2c(-c3noc(C4CC4)n3)ncn2-c2ccc(Cl)cc21 [CBK007792],108.938%
21,CC(=O)Nc1nnn(CCOc2nonc2C)n1 [CBK027320],151.529%
22,c1cc(N2CCN(CCN3CCCC3)CC2)ncc1-c1ccc2c(c1)OCO2 [CBK037769],124.995%
23,CCc1cn(C[C@H](NC(=O)C2CCC2)C(=O)O)c(=O)[nH]c1=O [CBK289663],155.114%
24,CCNC(=O)N1CC2(CCN(CCSC)CC2)c2ccccc21 [CBK126709],93.8674%
25,COCC(=O)N(C)C(CO)c1cc(OC)ccc1Br (stereo not shown) [CBK304780],134.88%
